# The comparison behind a weaker result is the experiment's own reference, which may not be listed here. Where a protein sequence is shown, tags need not be part of it. For part of these data: The exact form of at least one protein or probe is not confirmed.
# Assays:
# [1] = test system: T1, mv4Int (369 aa integrase) (Lactobacillus delbrueckii bacteriophage mv4); assay: EMSA; settings: complexes I, II, III at much lower efficiency than WT; purified recombinant protein; protein details: expressed from pET15b, nickel affinity purified; label: Cy3 on bottom strand; variant of COC' WT core-attP 35 bp
# T1 sequence: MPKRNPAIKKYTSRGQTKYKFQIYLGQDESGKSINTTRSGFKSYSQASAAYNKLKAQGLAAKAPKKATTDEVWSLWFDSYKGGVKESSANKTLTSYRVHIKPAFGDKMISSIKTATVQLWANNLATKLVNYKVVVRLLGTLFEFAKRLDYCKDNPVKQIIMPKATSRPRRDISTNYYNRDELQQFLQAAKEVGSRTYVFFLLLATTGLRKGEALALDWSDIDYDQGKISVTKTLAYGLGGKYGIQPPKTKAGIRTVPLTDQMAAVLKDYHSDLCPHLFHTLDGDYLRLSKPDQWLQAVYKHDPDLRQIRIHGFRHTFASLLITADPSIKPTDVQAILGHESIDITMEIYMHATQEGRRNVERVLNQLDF
# [2] = test system: T1, mv4Int (369 aa integrase) (Lactobacillus delbrueckii bacteriophage mv4); assay: enzyme reaction in vitro; settings: purified recombinant protein, protein details: expressed from pET15b, nickel affinity purified
# [3] = only with adapted attP, label: Cy3
sequence,measurement,setting,value
"GGTATTGGAACCCGCCTGTACTCTCCTTGCGTAAC (double strand) [XOC' (C mutated, B'/C' site intact)]",binding result,[1],binds more weakly
TTCAAATCCTGTACTCTCCTT (double strand) [attB WT mv4],activity on this sequence,"[2]; recombination with attP WT, 42 C, label: Cy3",active
CCCCTTGTCTCCTTAGAAAGGTCAAATGGTATC (double strand) [attB L. reuteri tRNASer],activity on this sequence,[2]; [3],active
AAAGAATTTCGGCTCTCCTTAATCAAAGCAATAATCCC (double strand) [attP lacZ1 overlap with attB lacZ1],activity on this sequence,[2]; recombination with attB lacZ1 detectable only by PCR,less active
AAAGAAAAGGTTTTCTCCTTAATCAAAGCAATAATCCC (double strand) [attP lacZ3 overlap with attB lacZ3],activity on this sequence,"[2]; recombination with attB lacZ3 detectable only by PCR, very low",less active
CCCGCTAGCTCCTTTATAAGGTCAAATGGTATC (double strand) [attB L. mesenteroides tRNASer],activity on this sequence,"[2]; only with adapted attP, lower efficiency, label: Cy3",less active
CCCCTTGACTCCTTTTAAAGGTCAAATGGTATCC (double strand) [attB L. lactis tRNASer],activity on this sequence,[2]; [3],active
AAAGAATGCCAACTCTCCTTAATCAAAGCAATAATCCC (double strand) [attP lacZ2 overlap with attB lacZ2],activity on this sequence,[2]; recombination with attB lacZ2 detectable only by PCR,less active
CCCGTCCTTTCCTTAACAAGGTCAAATGGTATC (double strand) [attB S. mutans tRNASer],activity on this sequence,[2]; [3],active

# Reference: patent publication US20250354175, “ATTP MV4-DERIVED SITE-SPECIFIC RECOMBINATION AND ITS USE FOR INTEGRATION OF SEQUENCE OF INTEREST” (INSTITUT NATIONAL DE RECHERCHE POUR L'AGRICULTURE, …, published 2025)
